Experiment [1] has as its target T1, ΔC150-KIAA1199 mutant (FLAG) (human (cDNA from CaSki cells)) (UniProt Q8WUJ3).
T1 sequence: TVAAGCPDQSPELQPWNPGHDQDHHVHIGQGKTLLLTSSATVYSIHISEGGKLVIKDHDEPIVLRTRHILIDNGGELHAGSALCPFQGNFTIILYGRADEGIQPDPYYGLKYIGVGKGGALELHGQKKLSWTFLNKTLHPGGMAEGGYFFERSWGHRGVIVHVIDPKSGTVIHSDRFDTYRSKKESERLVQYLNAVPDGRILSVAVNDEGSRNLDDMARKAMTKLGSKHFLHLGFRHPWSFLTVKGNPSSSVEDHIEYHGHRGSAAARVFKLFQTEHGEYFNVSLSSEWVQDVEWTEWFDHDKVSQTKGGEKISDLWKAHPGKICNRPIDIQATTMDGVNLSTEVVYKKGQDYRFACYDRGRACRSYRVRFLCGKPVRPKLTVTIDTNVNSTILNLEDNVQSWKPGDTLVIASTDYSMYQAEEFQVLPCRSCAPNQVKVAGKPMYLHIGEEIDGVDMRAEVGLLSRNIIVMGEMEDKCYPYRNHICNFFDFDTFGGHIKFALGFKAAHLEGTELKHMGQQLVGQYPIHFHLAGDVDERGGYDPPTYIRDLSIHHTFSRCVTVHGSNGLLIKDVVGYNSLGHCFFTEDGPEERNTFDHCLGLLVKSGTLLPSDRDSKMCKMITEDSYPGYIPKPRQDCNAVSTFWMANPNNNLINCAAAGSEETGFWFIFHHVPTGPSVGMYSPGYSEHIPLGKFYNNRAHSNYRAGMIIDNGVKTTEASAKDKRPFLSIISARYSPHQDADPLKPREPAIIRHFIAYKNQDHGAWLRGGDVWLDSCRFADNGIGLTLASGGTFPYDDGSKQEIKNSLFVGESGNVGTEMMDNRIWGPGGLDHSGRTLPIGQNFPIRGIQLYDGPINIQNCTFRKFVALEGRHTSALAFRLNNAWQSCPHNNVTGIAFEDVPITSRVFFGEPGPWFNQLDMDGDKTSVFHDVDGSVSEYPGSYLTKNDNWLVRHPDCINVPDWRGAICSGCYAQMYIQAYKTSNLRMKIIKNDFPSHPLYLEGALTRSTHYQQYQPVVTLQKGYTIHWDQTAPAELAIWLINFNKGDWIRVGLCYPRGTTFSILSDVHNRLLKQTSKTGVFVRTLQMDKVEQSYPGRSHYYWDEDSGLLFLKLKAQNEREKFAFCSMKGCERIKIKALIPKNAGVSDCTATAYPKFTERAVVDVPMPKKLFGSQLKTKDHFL
Kind of experiment: co-IP; cells transfected with KIAA1199-FLAG wild type or ΔN/ΔC mutants; anti-FLAG IP (anti-HA as negative control) followed by anti-EGFR blot.

Experiment [2] concerns the target T2, ΔC100-KIAA1199 mutant (FLAG) (human (cDNA from CaSki cells)) (UniProt Q8WUJ3).
T2 sequence: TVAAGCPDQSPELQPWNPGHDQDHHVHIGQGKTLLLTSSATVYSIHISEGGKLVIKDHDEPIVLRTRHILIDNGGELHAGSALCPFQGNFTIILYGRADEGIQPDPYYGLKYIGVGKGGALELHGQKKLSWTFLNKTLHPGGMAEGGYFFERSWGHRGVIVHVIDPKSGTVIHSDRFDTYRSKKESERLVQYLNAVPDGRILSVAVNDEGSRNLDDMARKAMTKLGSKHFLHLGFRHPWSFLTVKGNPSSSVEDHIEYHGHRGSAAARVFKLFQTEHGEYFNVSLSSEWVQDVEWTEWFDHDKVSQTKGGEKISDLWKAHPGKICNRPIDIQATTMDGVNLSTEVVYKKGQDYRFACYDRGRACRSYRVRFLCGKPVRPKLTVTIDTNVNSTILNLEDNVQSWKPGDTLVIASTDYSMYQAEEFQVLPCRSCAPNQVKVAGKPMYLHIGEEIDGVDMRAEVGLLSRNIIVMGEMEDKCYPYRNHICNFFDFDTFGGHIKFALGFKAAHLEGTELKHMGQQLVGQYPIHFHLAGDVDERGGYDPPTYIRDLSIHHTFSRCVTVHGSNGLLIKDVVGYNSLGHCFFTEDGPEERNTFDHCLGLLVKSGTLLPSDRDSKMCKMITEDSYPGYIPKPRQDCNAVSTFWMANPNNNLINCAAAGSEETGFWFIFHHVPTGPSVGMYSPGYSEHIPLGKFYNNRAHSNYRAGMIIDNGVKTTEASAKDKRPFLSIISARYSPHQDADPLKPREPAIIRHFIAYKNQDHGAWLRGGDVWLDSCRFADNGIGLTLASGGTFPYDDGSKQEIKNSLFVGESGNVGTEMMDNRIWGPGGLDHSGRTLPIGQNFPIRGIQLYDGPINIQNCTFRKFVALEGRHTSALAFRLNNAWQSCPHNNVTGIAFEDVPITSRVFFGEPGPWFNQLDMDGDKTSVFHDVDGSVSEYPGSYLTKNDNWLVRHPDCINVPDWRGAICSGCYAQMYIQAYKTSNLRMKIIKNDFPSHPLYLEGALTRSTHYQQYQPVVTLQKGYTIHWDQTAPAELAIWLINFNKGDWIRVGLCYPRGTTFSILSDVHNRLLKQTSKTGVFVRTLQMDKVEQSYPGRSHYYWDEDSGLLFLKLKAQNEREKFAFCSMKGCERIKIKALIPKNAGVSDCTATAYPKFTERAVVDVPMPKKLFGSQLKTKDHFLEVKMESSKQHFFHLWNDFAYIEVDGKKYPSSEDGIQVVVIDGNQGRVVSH
The description is as above.

Results are given in words; binding and its absence hold for the method and conditions named. Binding seen in cells or lysates may run through a third protein. Some binding calls cover weakened binding; strength is not graded here. Tags and fused reporters may be left off the sequences shown.

Turning to “EGFR (in extracts of transfected cells, Figure 5e) (from UniProt P00533 25-1210) (receptor)”, the binding entry in experiment [1] and in experiment [2] was “binds” in each case.

The record behind these values is publication PMC4241993.
